Literature values, collected in US5981777A, “Recovery of taxanes from plant material” (The Regents of the University of California, priority 1997, dated 1999).

Settings: in words; cited from earlier work

CC(=O)O[C@H]1C(=O)[C@@]2(C)[C@H]([C@H](OC(=O)c3ccccc3)[C@]3(O)C[C@H](OC(=O)[C@H](O)[C@@H](NC(=O)c4ccccc4)c4ccccc4)C(C)=C1C3(C)C)[C@]1(OC(C)=O)CO[C@@H]1C[C@@H]2O [Taxol ® (paclitaxel), paclitaxel]
solubility in aqueous solutions: relatively insoluble
